From the supplement of paper PMC6078165

System: MDAMB231
Test: relative JC-1 red fluorescence (viability) vs pre-drug, coculture with fibroblast (fraction); higher = more viable cancer cells
Description: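 JC-1 labelled TNBC cells cocultured 1:1 (1,500 cells each) with CellTrace Violet stained primary or stromal fibroblasts in 384-well plates in FluoroBrite medium, treated with one of 42 anticancer drugs at 0.1, 1, 10 or 100 uM. JC-1 red fluorescence (mitochondrial integrity in cancer cells only) was read by plate reader every 8 h for 72 h. Values are normalised to each well's pre-drug value. The stock of one drug was tenfold lower, so its dose labels may be too high.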

COc1cc([C@@H]2c3cc4c(cc3[C@@H](O[C@@H]3O[C@@H]5CO[C@@H](c6cccs6)O[C@H]5[C@H](O)[C@H]3O)[C@H]3COC(=O)[C@H]23)OCO4)cc(OC)c1O [Teniposide]
relative JC-1 red fluorescence
Conditions	8 h	16 h	24 h	32 h	40 h	48 h	56 h	64 h	72 h
10 µM, coculture fibroblast: C12385	0.766	0.766	0.719	0.71	0.5934	0.497	0.439	0.414	0.39
10 µM, coculture fibroblast: H6013	0.901	0.872	0.854	0.833	0.783	0.74	0.703	0.665	0.617
10 µM, coculture fibroblast: H6019	0.7979	0.7682	0.748	0.73	0.678	0.646	0.628	0.63	0.62
10 µM, coculture fibroblast: H6076	0.886	0.852	0.817	0.789	0.732	0.662	0.614	0.593	0.574
10 µM, coculture fibroblast: H6231	0.902	0.865	0.837	0.793	0.75	0.708	0.655	0.632	0.619
10 µM, coculture fibroblast: HADF	0.9108	0.9051	0.8839	0.86	0.814	0.753	0.732	0.699	0.631
10 µM, coculture fibroblast: HCFa	0.914	0.897	0.87	0.822	0.749	0.711	0.676	0.646	0.598
10 µM, coculture fibroblast: HCPF	0.899	0.874	0.857	0.848	0.804	0.766	0.7345	0.7147	0.689
10 µM, coculture fibroblast: HHSteC	0.914	0.907	0.884	0.842	0.79	0.756	0.695	0.66	0.62
10 µM, coculture fibroblast: HMF	0.9086	0.8758	0.83737	0.8111	0.768	0.7089	0.667	0.64	0.62
10 µM, coculture fibroblast: HPFa	0.946	0.943	0.901	0.844	0.7945	0.752	0.6592	0.626	0.585
10 µM, coculture fibroblast: HUF	0.849	0.795	0.812	0.728	0.68	0.684	0.639	0.65	0.644
10 µM, coculture fibroblast: Hs5	0.934	0.896	0.864	0.806	0.744	0.673	0.626	0.595	0.568
10 µM, coculture fibroblast: Hs27A	0.8837	0.865	0.833	0.819	0.771	0.733	0.722	0.7039	0.652
10 µM, coculture fibroblast: Hs343T	0.874	0.8388	0.818	0.809	0.751	0.704	0.659	0.644	0.626
10 µM, coculture fibroblast: WS1	0.7578	0.7484	0.662	0.68	0.626	0.581	0.534	0.525	0.499
100 µM, coculture fibroblast: C12385	0.823	0.819	0.825	0.851	0.796	0.766	0.75	0.78	0.774
100 µM, coculture fibroblast: H6013	0.9364	0.9358	0.9289	0.9441	0.953	0.948	0.928	0.904	0.85
100 µM, coculture fibroblast: H6019	0.825	0.7885	0.826	0.838	0.8373	0.88063	0.906	0.968	0.9757
100 µM, coculture fibroblast: H6076	0.9271	0.9289	0.935	0.925	0.934	0.936	0.932	0.932	0.919
100 µM, coculture fibroblast: H6231	0.9571	0.9245	0.912	0.915	0.939	0.83	0.89	0.902	0.815
100 µM, coculture fibroblast: HADF	0.93	0.93058	0.937	0.957	0.9469	0.927	0.924	0.9237	0.884
100 µM, coculture fibroblast: HCFa	0.9452	0.9186	0.9359	0.963	0.88	0.958	0.9621	0.941	0.92
100 µM, coculture fibroblast: HCPF	0.961	0.906	0.901	0.927	0.904	0.88	0.876	0.884	0.872
100 µM, coculture fibroblast: HHSteC	0.9468	0.95889	0.9518	0.963	0.9676	0.962	0.918	0.913	0.874
100 µM, coculture fibroblast: HMF	0.947	0.931	0.944	0.928	0.921	0.897	0.873	0.875	0.861
100 µM, coculture fibroblast: HPFa	0.9584	0.974	0.9714	0.9881	0.91	0.804	0.918	0.928	0.959
100 µM, coculture fibroblast: HUF	0.924	0.872	0.934	0.88	0.864	0.912	0.903	0.943	0.87
100 µM, coculture fibroblast: Hs5	0.9458	0.9705	0.868	0.891	0.763	0.95	0.864	0.847	0.845
100 µM, coculture fibroblast: Hs27A	0.9558	0.957	0.964	0.874	0.932	0.87	0.852	0.813	0.896
100 µM, coculture fibroblast: Hs343T	0.963	0.947	0.914	0.86	0.8426	0.906	0.9	0.786	0.788
100 µM, coculture fibroblast: WS1	0.827	0.7904	0.8509	0.8208	0.842	0.879	0.875	0.928	0.94

Values are relative to the signal before dosing, not to a vehicle control; the signal also falls without drug.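 Labels refer to human fibroblasts, largely primary: uterine (C12385, HUF), lung (H6013), bone (Hs27A), adrenal (HADF), skin (WS1), plus mammary HMF and breast cancer-associated Hs343T. Cancer lines are basal-like or mesenchymal-like triple-negative breast cancer. The paper counts as hits responses shifting over 3x the replicate standard deviation. The tissue of the other fibroblasts is not given here.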
